Data as given in PubChem BioAssay AID1224826 (NIAID, 2016).
Here is an unselected part of about 17,000 deposited reagents. In the full data, about 1,110 (6.6%) got an active call. 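Active means lowered or raised reporter signal; replicate intensities are raw and not normalised per plate.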 Further read-outs or replicates are left out here. No sequences are given here.

Assay: 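Genes that change LPS-induced Tnf promoter activity in mouse macrophages when knocked down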 (primary screen)
Cells: RAW264.7 G9 macrophages from mouse bearing reporters for p65 (GFP) and the Tnf promoter (mCherry)
Reagents: siRNA pool against mouse genes, 100 nM
Timing: 16 h of LPS stimulation, after 2 days of siRNA transfection
Conditions: bacterial lipopolysaccharide (Salmonella minnesota R595), 10 ng/ml
Measured: 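Nuclear mCherry signal of the Tnf promoter reporter measured by imaging after background removal, scaled to each plate median and turned into robust z-scores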
Reading the numbers: Tnf reporter robust z-score: higher = stronger Tnf promoter reporter signal after LPS
Active means: 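Called active when robust z-score is at most -1.3, matching the median of the Tlr4 knock-down control, or over 3; control wells and wells with under 50 cells never active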
Calls: active = Tnf reporter clearly lowered or raised; inactive = no clear change in Tnf reporter

Knock-down of Rpgr (GeneID 19893) came out at: Tnf reporter robust z-score -1.14; fewer than 50 cells in well enough cells in well; inactive.
Against Tulp1 (GeneID 22157), the values are Tnf reporter robust z-score 0.19; fewer than 50 cells in well enough cells in well; inactive.
Depletion of Srsf7 (GeneID 225027) gave: Tnf reporter robust z-score -0.44; fewer than 50 cells in well enough cells in well; inactive.
Depletion of Carnmt1 (GeneID 67383) came out at: Tnf reporter robust z-score -0.02; fewer than 50 cells in well enough cells in well; inactive.

2 successive entries from above:
Srsf7 (GeneID 225027): Tnf reporter robust z-score = -0.44; fewer than 50 cells in well = enough cells in well; outcome = inactive
Carnmt1 (GeneID 67383): Tnf reporter robust z-score = -0.02; fewer than 50 cells in well = enough cells in well; outcome = inactive

Continued.
After knock-down of Oasl2 (GeneID 23962), the record shows Tnf reporter robust z-score -0.8; fewer than 50 cells in well enough cells in well; inactive.
Silencing of 2610528J11Rik (GeneID 66451) came out at: fewer than 50 cells in well fewer than 50 cells per well; well left out of calls; inactive.
With knock-down of Cep112 (GeneID 76380) the results were fewer than 50 cells in well fewer than 50 cells per well; well left out of calls; inactive.
After knock-down of Fzd5 (GeneID 14367), the screen gave Tnf reporter robust z-score -0.4; fewer than 50 cells in well enough cells in well; inactive.
Silencing of Ptcra (GeneID 19208) resulted in: Tnf reporter robust z-score -0.81; fewer than 50 cells in well enough cells in well; inactive.
Knock-down of Man2b2 (GeneID 17160) gave: Tnf reporter robust z-score -1.09; fewer than 50 cells in well enough cells in well; inactive.
After knock-down of Syp (GeneID 20977), the screen gave Tnf reporter robust z-score 0.93; fewer than 50 cells in well enough cells in well; inactive.
Depletion of Actg2 (GeneID 11468) gave: Tnf reporter robust z-score -0.25; fewer than 50 cells in well enough cells in well; inactive.
